Test results: paper PMC7819943, “Rice protein-binding microarrays: a tool to detect cis-acting elements near promoter regions in rice”
This is one part of the list.

target: T1, OsSMF1 (Oryza sativa, UniProt Q6ZLB0 1-436); test: protein-binding microarray (RPBM); PBS, 2% BSA, 51.3 ng/ul salmon testes DNA, 50 uM zinc acetate, 200 nM TF, 25 C, 1 h; high values mean tight binding; conditions: protein: recombinant; tags: N-terminal polyhistidine and DsRed monomer fusion (pET32a); chain copies: 2; label: CyDye5-dUTP incorporated in the synthesized complementary strand; 3' TTTTT single-stranded linker to array surface; dsDNA, one strand shown
T1 sequence: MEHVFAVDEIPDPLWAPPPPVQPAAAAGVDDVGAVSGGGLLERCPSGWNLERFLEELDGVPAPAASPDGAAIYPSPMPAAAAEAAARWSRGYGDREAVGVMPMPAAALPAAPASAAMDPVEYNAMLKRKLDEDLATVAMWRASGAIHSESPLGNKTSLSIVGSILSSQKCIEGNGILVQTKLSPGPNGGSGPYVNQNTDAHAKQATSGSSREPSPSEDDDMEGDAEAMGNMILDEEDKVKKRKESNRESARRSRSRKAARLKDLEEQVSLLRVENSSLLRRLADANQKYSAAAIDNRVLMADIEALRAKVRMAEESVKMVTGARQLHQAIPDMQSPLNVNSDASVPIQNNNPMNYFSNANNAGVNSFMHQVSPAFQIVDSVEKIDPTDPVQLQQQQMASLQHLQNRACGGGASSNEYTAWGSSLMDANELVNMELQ
Method in brief: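 The binding signal is fluorescence intensity per feature, in arbitrary units, read on an Axon 4000B scanner. Polyhistidine- and DsRed-tagged transcription factors (N-terminal fusions) from E. coli BL21-CodonPlus were purified on Ni–NTA and applied at 200 nM for 1 h at 25 °C to a double-stranded, BSA-blocked custom Agilent array in buffer with 50 µM zinc acetate.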

Sequence | binding signal
CTCCTCAATGACGCAATAGGCAACAACTCCTCTTGACGGCCGGAGTCACCTAGTGCAG | 3540 fluorescence intensity (a.u.)
GCCGTCCCGCCCACCGCCGCCACCTACGCGCTCTACCTCTCGGAGTCACCTAGTGCAG | 4290 fluorescence intensity (a.u.)
CAGCAGCCTCCAGCACTTGGTCACACACGTCACTCTACCACGGAGTCACCTAGTGCAG | 8630 fluorescence intensity (a.u.)
TTTGGTACTTGTGTCCTGCCTCCACATCAGCTTCAGAGACCGGAGTCACCTAGTGCAG | 5140 fluorescence intensity (a.u.)
CGAGCCAATGCCGTGTGTCTGAGTCTGACCCGTTGATTCTCGGAGTCACCTAGTGCAG | 18400 fluorescence intensity (a.u.)
GAACAACAATGCTTCTATTCATACGTGGATTTTCTATTCACGGAGTCACCTAGTGCAG | 3900 fluorescence intensity (a.u.)
TTGACTCCTGTTTTGTCCAACGTGGCAGCTGATTCAGCGTCGGAGTCACCTAGTGCAG | 11100 fluorescence intensity (a.u.)
CTCCGTAGTACTAGTAGTAGACGACGTGTTCCCACCTGTCCGGAGTCACCTAGTGCAG | 4880 fluorescence intensity (a.u.)
CACTTGGCCTTCCGCGTCCGTCCCTGACTCGGCGGCAGCGCGGAGTCACCTAGTGCAG | 3510 fluorescence intensity (a.u.)
CACCAAGTCAACAACGTCACGTCAGCGAAACCATTCTCCACGGAGTCACCTAGTGCAG | 9370 fluorescence intensity (a.u.)
AAAGCTATCATCAATCCATCCAATATCCATCGTGCACTGACGGAGTCACCTAGTGCAG | 3580 fluorescence intensity (a.u.)
GTTTTAGTGGGTTGTTTCGTTGACGTGGTGCTATGACCCGCGGAGTCACCTAGTGCAG | 9220 fluorescence intensity (a.u.)
GGAGCCTAATTACTGACATGAGTCATAAGATCAAAGGTCTCGGAGTCACCTAGTGCAG | 5840 fluorescence intensity (a.u.)
TAGTTCTATTGTTCTACAGAAATATGTAGTAGCTATACGTCGGAGTCACCTAGTGCAG | 3330 fluorescence intensity (a.u.)
CCTTCACCGCCTCCGCCTCTTTGACCTCCTCCTCCGCCATCGGAGTCACCTAGTGCAG | 24700 fluorescence intensity (a.u.)
CCCATATACAATTGCCTTACCTGTCCCCACCTGTCACATGCGGAGTCACCTAGTGCAG | 3170 fluorescence intensity (a.u.)
GTGATATTCTGTCTTCCTGTGATATCAGCACTGTTTTATGCGGAGTCACCTAGTGCAG | 3450 fluorescence intensity (a.u.)
ATAAAGTGAGCGATGAGTCATATCATTATCTCCCGCCTGCCGGAGTCACCTAGTGCAG | 16400 fluorescence intensity (a.u.)
GAAGTGCCACGTAAGCACCACATCAATGCCACGTCAGATGCGGAGTCACCTAGTGCAG | 38800 fluorescence intensity (a.u.)
GGTTCTACAAATTTCTTAGTACAGTATAGACACGTCGGAGCGGAGTCACCTAGTGCAG | 5910 fluorescence intensity (a.u.)
TAGGTCTCGATTTTGTTTTCTTGGAGATCTGTGATGTCATCGGAGTCACCTAGTGCAG | 5240 fluorescence intensity (a.u.)
AGTAACCGACTCCTTTCCAACGTGTTCCCCACGAAGCCGGCGGAGTCACCTAGTGCAG | 4560 fluorescence intensity (a.u.)
CTTTGCTTGGCCCGATCCTTACCTTTGCTGGCTTGTACTGCGGAGTCACCTAGTGCAG | 3790 fluorescence intensity (a.u.)

2 entries from above, tab-delimited:
Sequence	binding signal
CACTTGGCCTTCCGCGTCCGTCCCTGACTCGGCGGCAGCGCGGAGTCACCTAGTGCAG	3510 fluorescence intensity (a.u.)
AGTAACCGACTCCTTTCCAACGTGTTCCCCACGAAGCCGGCGGAGTCACCTAGTGCAG	4560 fluorescence intensity (a.u.)
